This assay concerns the target T1, Human TRPML1 (transient receptor potential mucolipin 1) (human), Q9GZU1.
T1 chain: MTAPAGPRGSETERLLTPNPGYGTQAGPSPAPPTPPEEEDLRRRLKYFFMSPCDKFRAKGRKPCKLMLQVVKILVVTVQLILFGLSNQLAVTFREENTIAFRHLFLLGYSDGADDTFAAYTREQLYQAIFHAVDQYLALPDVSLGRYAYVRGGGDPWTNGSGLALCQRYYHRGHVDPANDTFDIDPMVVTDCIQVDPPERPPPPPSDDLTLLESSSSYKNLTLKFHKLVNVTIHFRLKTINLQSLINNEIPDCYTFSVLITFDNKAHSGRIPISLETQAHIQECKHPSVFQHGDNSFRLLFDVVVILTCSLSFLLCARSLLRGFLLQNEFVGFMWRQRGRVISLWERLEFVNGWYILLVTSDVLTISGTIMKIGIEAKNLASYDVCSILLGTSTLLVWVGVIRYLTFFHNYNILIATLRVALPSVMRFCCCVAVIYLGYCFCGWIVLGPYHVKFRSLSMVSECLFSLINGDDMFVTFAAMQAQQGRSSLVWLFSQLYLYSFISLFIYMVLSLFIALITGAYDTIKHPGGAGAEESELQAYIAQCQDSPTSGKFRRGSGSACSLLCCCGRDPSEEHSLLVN
Briefly: cryo-EM structure; human TRPML1 in 20 mM sodium acetate pH 5.0, 150 mM NaCl, 0.06% digitonin, incubated with 0.2 mM PtdIns(3,5)P2, 0.2 mM PtdIns(4,5)P2, or 0.2 mM PtdIns(3,5)P2 plus 0.3 mM ML-SA1; 3.5-3.7 A; both purified. Particulars: remark: other sources report otherwise.

Results are given in words; binding and its absence hold for the method and conditions named. Some entries that bind do so weakly or less than the wild type.

B1: Human TRPML1 (transient receptor potential mucolipin 1), Q9GZU1 1-580 (protein)
chain: T1 chain
For the molecule B1, the binding entry is “binds”.

The record behind these values is publication PMC6180102.
